According to the supplement of paper PMC10849652:
Some of the results follow.

The chains behind the UniProt entries cited, without tags or fusion partners. Where a name states a change or a piece, a line headed by the entry shows the natural chain unless it says otherwise.
UniProt Q9H9A5, whole entry, looked up: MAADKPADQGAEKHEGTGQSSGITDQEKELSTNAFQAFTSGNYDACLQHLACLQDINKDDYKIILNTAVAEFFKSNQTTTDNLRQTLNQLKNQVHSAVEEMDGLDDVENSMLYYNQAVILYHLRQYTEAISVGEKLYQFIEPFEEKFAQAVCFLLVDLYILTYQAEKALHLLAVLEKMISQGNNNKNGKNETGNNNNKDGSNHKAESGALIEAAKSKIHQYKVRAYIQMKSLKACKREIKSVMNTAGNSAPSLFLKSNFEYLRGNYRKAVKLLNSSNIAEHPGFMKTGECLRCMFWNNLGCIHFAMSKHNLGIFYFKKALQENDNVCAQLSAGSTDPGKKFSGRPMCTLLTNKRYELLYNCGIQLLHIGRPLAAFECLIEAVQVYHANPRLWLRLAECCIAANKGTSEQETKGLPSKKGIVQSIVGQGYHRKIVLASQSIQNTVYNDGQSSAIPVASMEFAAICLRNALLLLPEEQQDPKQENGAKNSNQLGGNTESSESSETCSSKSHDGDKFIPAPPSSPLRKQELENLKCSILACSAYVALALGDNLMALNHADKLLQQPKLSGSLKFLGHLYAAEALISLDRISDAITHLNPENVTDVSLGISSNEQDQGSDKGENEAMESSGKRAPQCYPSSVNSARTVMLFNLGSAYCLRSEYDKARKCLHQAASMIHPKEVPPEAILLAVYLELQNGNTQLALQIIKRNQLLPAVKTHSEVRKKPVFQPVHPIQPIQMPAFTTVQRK
UniProt Q9UNS2: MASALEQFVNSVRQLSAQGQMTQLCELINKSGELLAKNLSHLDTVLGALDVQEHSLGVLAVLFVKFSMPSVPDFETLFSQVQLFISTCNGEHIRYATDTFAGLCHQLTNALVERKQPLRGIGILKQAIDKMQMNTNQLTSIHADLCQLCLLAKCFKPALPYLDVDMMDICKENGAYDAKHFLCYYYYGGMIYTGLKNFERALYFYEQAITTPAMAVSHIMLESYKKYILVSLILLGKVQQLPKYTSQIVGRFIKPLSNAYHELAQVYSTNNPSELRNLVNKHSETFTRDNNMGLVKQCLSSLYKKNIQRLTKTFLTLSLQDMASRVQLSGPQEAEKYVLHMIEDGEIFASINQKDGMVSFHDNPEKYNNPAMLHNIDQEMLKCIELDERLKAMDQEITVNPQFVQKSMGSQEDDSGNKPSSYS
UniProt P14406, whole entry, looked up: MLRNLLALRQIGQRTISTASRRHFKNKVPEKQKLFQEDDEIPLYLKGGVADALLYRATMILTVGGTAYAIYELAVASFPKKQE
UniProt Q9UIV1, whole entry, looked up: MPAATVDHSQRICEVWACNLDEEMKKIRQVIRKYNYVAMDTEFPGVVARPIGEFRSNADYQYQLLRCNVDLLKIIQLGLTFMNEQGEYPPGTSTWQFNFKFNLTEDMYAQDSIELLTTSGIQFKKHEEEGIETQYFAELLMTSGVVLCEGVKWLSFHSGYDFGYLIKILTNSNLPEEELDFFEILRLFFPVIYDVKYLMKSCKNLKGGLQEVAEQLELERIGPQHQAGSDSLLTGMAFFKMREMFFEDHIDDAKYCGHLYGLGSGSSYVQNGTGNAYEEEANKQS
UniProt O75175, whole entry, looked up: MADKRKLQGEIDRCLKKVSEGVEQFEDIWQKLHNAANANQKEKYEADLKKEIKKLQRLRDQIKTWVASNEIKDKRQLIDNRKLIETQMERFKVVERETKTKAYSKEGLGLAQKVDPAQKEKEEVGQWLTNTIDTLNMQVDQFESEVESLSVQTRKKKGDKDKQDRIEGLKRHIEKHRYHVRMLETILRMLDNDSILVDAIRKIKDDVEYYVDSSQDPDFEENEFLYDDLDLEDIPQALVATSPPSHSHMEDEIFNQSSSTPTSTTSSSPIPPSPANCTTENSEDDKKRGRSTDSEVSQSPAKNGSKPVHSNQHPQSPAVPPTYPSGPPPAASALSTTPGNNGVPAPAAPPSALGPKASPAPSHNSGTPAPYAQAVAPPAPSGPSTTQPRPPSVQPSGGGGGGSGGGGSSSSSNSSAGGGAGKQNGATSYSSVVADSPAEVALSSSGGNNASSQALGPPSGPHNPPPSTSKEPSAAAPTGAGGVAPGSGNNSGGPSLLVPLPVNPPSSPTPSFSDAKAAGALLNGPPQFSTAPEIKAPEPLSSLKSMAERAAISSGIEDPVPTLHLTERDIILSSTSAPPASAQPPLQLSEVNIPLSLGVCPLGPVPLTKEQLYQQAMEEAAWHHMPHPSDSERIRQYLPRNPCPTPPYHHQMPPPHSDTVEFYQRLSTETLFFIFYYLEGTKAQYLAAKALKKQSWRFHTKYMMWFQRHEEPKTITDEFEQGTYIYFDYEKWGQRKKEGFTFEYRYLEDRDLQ
UniProt P20674, whole entry, looked up: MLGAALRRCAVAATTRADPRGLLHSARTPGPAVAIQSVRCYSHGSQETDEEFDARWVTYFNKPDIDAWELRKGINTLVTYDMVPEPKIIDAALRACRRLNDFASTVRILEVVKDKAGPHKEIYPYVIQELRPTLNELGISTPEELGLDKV
UniProt Q8IWV2: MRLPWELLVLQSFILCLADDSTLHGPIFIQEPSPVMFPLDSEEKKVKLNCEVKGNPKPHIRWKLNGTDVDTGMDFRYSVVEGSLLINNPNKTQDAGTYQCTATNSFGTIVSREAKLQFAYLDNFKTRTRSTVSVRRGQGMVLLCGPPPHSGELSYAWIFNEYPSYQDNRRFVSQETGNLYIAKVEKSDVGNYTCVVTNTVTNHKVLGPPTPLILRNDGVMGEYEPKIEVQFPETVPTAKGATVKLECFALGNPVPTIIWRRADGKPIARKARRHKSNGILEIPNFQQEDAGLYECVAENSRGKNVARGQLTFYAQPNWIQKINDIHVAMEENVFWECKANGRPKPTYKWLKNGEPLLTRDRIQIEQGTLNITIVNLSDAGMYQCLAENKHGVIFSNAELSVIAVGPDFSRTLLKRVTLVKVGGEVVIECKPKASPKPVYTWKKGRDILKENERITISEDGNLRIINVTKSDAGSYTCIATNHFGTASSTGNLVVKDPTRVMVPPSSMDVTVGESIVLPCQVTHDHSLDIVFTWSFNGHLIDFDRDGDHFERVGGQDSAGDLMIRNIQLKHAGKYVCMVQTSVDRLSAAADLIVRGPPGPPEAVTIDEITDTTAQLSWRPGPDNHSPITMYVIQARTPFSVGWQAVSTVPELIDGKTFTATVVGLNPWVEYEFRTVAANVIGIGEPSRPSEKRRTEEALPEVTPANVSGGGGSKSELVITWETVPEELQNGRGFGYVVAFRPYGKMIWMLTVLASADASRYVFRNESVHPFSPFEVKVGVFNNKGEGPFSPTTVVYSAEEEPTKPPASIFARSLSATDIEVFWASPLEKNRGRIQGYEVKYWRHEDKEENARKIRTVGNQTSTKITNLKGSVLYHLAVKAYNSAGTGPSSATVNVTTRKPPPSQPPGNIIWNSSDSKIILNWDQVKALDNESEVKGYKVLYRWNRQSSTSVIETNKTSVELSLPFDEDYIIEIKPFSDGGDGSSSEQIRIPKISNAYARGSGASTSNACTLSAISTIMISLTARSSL
UniProt P13073, whole entry, looked up: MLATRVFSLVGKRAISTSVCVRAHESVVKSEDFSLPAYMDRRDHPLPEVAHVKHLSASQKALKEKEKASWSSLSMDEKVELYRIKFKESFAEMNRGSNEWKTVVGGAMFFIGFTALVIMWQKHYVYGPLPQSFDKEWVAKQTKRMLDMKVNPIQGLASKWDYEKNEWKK
UniProt Q9ULV4, whole entry, looked up: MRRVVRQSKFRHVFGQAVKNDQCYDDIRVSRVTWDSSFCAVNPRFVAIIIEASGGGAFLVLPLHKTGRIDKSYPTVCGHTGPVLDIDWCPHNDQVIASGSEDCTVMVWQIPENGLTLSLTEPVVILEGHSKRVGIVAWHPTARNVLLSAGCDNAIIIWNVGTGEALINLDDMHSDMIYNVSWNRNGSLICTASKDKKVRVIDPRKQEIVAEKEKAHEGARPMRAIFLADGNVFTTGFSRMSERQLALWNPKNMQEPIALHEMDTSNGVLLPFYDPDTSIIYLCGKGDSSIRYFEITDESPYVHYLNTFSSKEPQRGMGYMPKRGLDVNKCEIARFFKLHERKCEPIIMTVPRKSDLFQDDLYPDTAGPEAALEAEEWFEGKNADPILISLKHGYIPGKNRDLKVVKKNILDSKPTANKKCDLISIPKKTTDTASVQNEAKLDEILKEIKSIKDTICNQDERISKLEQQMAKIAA
UniProt O95628: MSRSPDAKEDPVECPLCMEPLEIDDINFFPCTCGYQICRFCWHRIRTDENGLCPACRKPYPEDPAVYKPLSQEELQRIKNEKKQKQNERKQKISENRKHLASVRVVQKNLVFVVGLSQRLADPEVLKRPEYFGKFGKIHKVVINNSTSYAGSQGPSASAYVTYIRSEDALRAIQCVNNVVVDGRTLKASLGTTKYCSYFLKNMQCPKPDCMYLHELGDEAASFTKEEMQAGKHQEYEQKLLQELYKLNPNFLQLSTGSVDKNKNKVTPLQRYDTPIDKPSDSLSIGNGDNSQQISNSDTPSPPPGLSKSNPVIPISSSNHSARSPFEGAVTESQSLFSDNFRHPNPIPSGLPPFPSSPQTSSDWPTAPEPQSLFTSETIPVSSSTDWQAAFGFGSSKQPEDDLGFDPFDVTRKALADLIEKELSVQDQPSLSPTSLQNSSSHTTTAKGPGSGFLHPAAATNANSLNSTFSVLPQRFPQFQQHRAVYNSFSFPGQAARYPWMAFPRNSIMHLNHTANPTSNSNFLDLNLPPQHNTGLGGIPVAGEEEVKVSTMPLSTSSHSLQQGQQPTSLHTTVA
UniProt P39060, whole entry, looked up: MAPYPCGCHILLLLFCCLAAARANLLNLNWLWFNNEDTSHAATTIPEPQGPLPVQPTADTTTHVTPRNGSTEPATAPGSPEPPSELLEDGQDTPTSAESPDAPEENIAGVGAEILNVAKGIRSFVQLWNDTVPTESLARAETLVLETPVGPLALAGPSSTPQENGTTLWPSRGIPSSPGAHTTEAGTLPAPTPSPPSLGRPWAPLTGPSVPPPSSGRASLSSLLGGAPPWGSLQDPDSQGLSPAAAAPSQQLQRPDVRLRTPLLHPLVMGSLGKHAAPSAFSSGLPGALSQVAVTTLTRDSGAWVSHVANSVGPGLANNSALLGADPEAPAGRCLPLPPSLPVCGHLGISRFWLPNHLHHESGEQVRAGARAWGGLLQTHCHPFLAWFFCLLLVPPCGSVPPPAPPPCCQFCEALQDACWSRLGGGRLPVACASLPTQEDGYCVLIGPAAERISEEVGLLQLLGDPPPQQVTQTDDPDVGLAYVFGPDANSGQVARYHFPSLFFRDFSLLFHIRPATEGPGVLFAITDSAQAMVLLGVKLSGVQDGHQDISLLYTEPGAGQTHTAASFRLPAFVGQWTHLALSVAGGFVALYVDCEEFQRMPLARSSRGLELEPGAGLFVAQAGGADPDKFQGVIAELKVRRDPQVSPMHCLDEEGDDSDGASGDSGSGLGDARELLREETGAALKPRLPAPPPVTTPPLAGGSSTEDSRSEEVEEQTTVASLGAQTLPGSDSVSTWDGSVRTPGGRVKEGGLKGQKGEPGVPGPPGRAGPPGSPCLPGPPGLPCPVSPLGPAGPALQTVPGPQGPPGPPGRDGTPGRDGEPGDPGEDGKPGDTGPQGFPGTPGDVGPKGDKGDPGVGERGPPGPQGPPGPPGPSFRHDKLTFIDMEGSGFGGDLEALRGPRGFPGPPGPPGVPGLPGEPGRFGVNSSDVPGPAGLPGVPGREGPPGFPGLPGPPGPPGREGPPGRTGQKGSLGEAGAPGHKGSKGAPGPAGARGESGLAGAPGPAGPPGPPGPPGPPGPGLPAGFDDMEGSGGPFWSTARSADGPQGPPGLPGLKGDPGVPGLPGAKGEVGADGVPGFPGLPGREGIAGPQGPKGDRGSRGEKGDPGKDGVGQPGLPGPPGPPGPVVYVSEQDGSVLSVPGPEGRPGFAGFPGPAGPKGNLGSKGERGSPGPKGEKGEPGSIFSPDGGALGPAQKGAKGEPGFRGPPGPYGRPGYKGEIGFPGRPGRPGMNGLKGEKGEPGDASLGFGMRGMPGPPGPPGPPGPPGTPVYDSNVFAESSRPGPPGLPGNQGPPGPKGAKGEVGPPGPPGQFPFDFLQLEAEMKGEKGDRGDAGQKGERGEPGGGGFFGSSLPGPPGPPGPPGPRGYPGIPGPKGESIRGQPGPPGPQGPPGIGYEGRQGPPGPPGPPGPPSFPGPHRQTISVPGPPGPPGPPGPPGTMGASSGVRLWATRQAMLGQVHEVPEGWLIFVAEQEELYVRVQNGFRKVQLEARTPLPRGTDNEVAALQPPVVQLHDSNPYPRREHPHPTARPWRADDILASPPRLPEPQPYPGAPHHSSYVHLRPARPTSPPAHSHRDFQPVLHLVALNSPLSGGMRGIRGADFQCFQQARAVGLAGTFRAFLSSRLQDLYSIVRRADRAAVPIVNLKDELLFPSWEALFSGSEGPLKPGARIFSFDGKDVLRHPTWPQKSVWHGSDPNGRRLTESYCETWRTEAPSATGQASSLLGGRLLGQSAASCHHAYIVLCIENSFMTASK
UniProt P12074, whole entry, looked up: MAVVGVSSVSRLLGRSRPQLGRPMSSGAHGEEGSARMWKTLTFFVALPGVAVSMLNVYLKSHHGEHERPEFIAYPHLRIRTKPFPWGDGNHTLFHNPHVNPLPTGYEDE

compound: C/C(=N\NC(=O)C1=CC(=CC=C1)S(=O)(=O)N2CCOCC2)/C3=C(C=CC(=C3)Cl)O; experiment: log2 fold change, soluble protein after heating vs DMSO (PISA); higher = thermal stabilisation; K562 lysate, 10 uM; active = over 0.2 and 3.5 SD of the protein, either way, in both replicates (recomputed)
In short: (§1)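 To prepare the extract, K562 pellets were dounce-homogenised in PBS pH 7.4 with 1 mM MgCl2, giving crude material at 1 mg/mL protein. This was treated with 10 μM compound for 30 min, then heated in aliquots for 3 min over 48°C-58°C before pooling and addition of NP-40 to 0.5% at 4°C. Centrifugation at 21,000xg for 90 min left soluble protein in the supernatant, which TMTpro 16plex LC-MS/MS quantified with equalised channel sums. Results are log-two fold changes in thermal stability compared with solvent controls, from duplicates.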

log2 fold change, inactive:
CNOT10 (UniProt Q9H9A5) -0.002
COPA isoform 2 (UniProt P53621) 0.019
COPS3 (UniProt Q9UNS2) -0.005
COX7A2 (UniProt P14406) -0.023
CNOT6 (UniProt Q9ULM6) 0.076
CNOT7 (UniProt Q9UIV1) -0.014
CNOT3 (UniProt O75175) 0.094
COX5A (UniProt P20674) -0.042
COPRS (UniProt Q9NQ92) 0.019
COQ7 (UniProt Q99807) -0.079
COTL1 (UniProt Q14019) 0.04
COX11 (UniProt Q9Y6N1) -0.129
CRADD (UniProt P78560) 0.027
COMMD1 (UniProt Q8N668) 0.025
CNOT1 (UniProt A5YKK6) 0.074
CPSF7 isoform 3 (UniProt Q8N684) -0.041
COMTD1 (UniProt Q86VU5) 0.024
COX18 (UniProt Q8N8Q8) 0.017
COX19 (UniProt Q49B96) 0.063
COPZ1 isoform 4 (UniProt P61923) 0.065
CPSF1 (UniProt Q10570) 0.009
CNPY2 (UniProt Q9Y2B0) 0.001
CNST (UniProt Q6PJW8) -0.013
COA1 (UniProt Q9GZY4) -0.059
COPS7B (UniProt Q9H9Q2) 0.082
COQ3 (UniProt Q9NZJ6) 0.098
CNTN4 (UniProt Q8IWV2) 0.063
COX4I1 (UniProt P13073) 0.033
CPPED1 (UniProt Q9BRF8) 0.021
COPS4 (UniProt Q9BT78) 0.051
CPSF4 (UniProt O95639) 0.166
COMMD10 (UniProt Q9Y6G5) -0.018
CPD (UniProt O75976) -0.067
CORO1C isoform 3 (UniProt Q9ULV4) -0.062
CNOT4 isoform 6 (UniProt O95628) -0.016
COMMD9 (UniProt Q9P000) -0.079
COL18A1 (UniProt P39060) -0.192
CPEB4 (UniProt Q17RY0) -0.016
COX15 (UniProt Q7KZN9) -0.046
COX6A1 (UniProt P12074) 0.032

compound: C1=CC(=CC=C1C2=NC3=C(N2)C=C(C=C3)C(=O)N)OC4=CC=C(C=C4)Cl; experiment: as above
In short: as §1

log2 fold change, inactive:
CNOT10 (UniProt Q9H9A5) 0.007
COPA isoform 2 (UniProt P53621) 0.012
COPS3 (UniProt Q9UNS2) 0.01
COX7A2 (UniProt P14406) 0.047
CNOT6 (UniProt Q9ULM6) 0.029
CNOT7 (UniProt Q9UIV1) 0.001
CNOT3 (UniProt O75175) 0.031
COX5A (UniProt P20674) -0.012
COPRS (UniProt Q9NQ92) 0.086
COQ7 (UniProt Q99807) 0.027
COTL1 (UniProt Q14019) 0.013
COX11 (UniProt Q9Y6N1) 0.021
CRADD (UniProt P78560) -0.076
COMMD1 (UniProt Q8N668) -0.031
CNOT1 (UniProt A5YKK6) 0.016
CPSF7 isoform 3 (UniProt Q8N684) 0.027
COMTD1 (UniProt Q86VU5) -0.076
COX18 (UniProt Q8N8Q8) -0.152
COX19 (UniProt Q49B96) 0.017
COPZ1 isoform 4 (UniProt P61923) -0.05
CPSF1 (UniProt Q10570) 0.034
CNPY2 (UniProt Q9Y2B0) 0.024
CNST (UniProt Q6PJW8) 0.05
COA1 (UniProt Q9GZY4) -0.091
COPS7B (UniProt Q9H9Q2) 0.095
COQ3 (UniProt Q9NZJ6) -0.22
CNTN4 (UniProt Q8IWV2) 0.138
COX4I1 (UniProt P13073) 0.008
CPPED1 (UniProt Q9BRF8) 0
COPS4 (UniProt Q9BT78) -0.002
CPSF4 (UniProt O95639) 0.012
COMMD10 (UniProt Q9Y6G5) 0.008
CPD (UniProt O75976) 0.033
CORO1C isoform 3 (UniProt Q9ULV4) 0.054
CNOT4 isoform 6 (UniProt O95628) 0.005
COMMD9 (UniProt Q9P000) -0.005
COL18A1 (UniProt P39060) 0.008
CPEB4 (UniProt Q17RY0) 0.016
COX15 (UniProt Q7KZN9) -0.034
COX6A1 (UniProt P12074) 0.075
